System: lipid levels and high-sensitivity CRP
[1] = 12 Weeks of atorvastatin 10 mg orally per day, n = 35, mean ± SD

CC(C)c1c(C(=O)Nc2ccccc2)c(-c2ccccc2)c(-c2ccc(F)cc2)n1CC[C@@H](O)C[C@@H](O)CC(=O)O [Atorvastatin, atorvastatin]
High-density lipoprotein cholesterol [1]: 58 ± 12 mg/dL
Low-density lipoprotein cholesterol [1]: 103 ± 29 mg/dL
High-density lipoprotein cholesterol, absolute change (baseline to 12 weeks, atorvastatin 10 mg per day, n = 35): 2 mg/dL
High-density lipoprotein cholesterol, % change (increase, baseline to 12 weeks, atorvastatin 10 mg per day, not significant): 4%
Low-density lipoprotein cholesterol, % change (reduction, baseline to 12 weeks, atorvastatin 10 mg per day, given unsigned): 39%

From patent publication EP1495132B1, “SYSTEMIC MARKER FOR MONITORING ANTI-INFLAMMATORY AND ANTIOXIDANT ACTIONS OF THERAPEUTIC AGENTS” (priority 2002, dated 2003)
